PubChem BioAssay AID1259254, NCATS – 2017
The whole screen tested about 59,000 reagents; this is a random part of them. In the full data, about 1,550 (2.6%) were called active. 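G2 share is only a proxy for re-replication; each gene was hit by three separate siRNAs, and active genes were retested.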 Entries without a mark were called inactive. Reagents against one gene are numbered here. Further read-outs or replicates are left out here. Not given: the amount of reagent.

- Assay: 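Finding genes that stop cells copying their DNA twice in one cycle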 (primary screen)
- System: human HCT116 colorectal cancer cells
- Reagents: single siRNA against human genes
- Duration: 3 days
- Read-out: 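Nuclei stained with Hoechst and imaged; cell-cycle phase assigned by DNA content; G2 share scaled per plate, non-targeting siRNA 0%, GMNN siRNA 100%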
- Scale: G2 robust z-score: higher = more G2 cells, more excess DNA replication
- Active means: 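An siRNA counts as active if its G2 robust z-score lies at least 5 MADs above the screen median; here such calls match roughly 38% of GMNN control or more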

SLCO1B3 #1 scored G2 robust z-score -0.42.
SLCO1B3 #2 showed G2 robust z-score 0.666.
Silencing of SLCO1B3 #3 gave: G2 robust z-score 2.87.
Against ZNF620 #1, the values are G2 robust z-score 0.889.
With knock-down of ZNF620 #2 the results were G2 robust z-score 0.583.
Silencing of ZNF620 #3 resulted in: G2 robust z-score -0.277.
FN3K #1 gave G2 robust z-score 1.67.
Against FN3K #2, the values are G2 robust z-score -0.723.
Against FN3K #3, the entry reads G2 robust z-score -1.03.
For GATM #1 the deposit lists G2 robust z-score -1.37.
After knock-down of GATM #2, the record shows G2 robust z-score -0.694.
Silencing of GATM #3 came out at: G2 robust z-score 3.39.
